In PubChem BioAssay AID485298 (National Center for Advancing Translational Sciences (NCATS), 2010):
The whole screen tested about 320,000 compounds, of which about 740 (0.23%) were called active. Inconclusive means that the source gave no clear call. Such entries were picked first, then a sample of the others. Calls follow the shape of the dose curve; as a rule, active = well fitted activation curve with a large enough effect; inconclusive = small, poorly fitted or top-dose-only effect; inactive = no such curve, though single readings can be large or run the other way. Where the call is inconclusive, the potency comes from a doubtful curve fit.

Test: qHTS Assay for Small Molecule Inhibitors of Mitochondrial Division or Activators of Mitochondrial Fusion; also: nearly all actives have a fitted effect of over 45% in size
Conditions: S. cerevisiae fusion-defective mutant growth rescue, CellTiterGlo 48 h; series mostly up to 46.1 µM
Method in brief: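 Read-out: ATP-based luminescence (CellTiterGlo, 10 min ambient) reporting growth of fusion-defective ts yeast after 48 hours at 37C on glycerol/ethanol YPEG medium in the presence of compound.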
Potency is read from the fitted curve at half-maximal effect.

| SMILES | Potency |
| --- | --- |
| COc1ccc(-c2cc3ccc(O)cc3oc2=O)cc1 | inconclusive: 14.1 µM [activator, partial curve] |
| COc1cc(/C=N/N=C2/NC(=O)C(CC(=O)O)S2)ccc1OCc1ccc(Cl)cc1 (stereo not given) | inactive |
| COc1cccc(Oc2cncnc2-c2ccc(OC)cc2O)c1 | inconclusive: 15.8 µM [activator, single point] |
| CCOC(=O)C1=C(COC(=O)c2ccc3ccccc3c2O)NC(=O)NC1C (stereo not given) | inconclusive: 20 µM [activator, single point] |
| COC(=O)c1cccc(C(=O)N2CCCC(C(=O)c3cccc(OC(C)C)c3)C2)c1 (stereo not given) | inconclusive: 10 µM [activator, partial curve, poor fit] |
| CCCCOc1ccc(/C(O)=C2/C(=O)C(=O)N(CCN(C)C)C2c2ccc(O)c(OC)c2)cc1 (stereo not given) | inactive |
| COC(=O)[C@@]12CCCN1[C@H](c1ccc(-c3ccc(Cl)c(Cl)c3)cc1)[C@H]1C(=O)N(C)C(=O)[C@H]12 | inconclusive: 12.6 µM [activator, single point] |
| CCCCC(=O)Nc1ccc(C(=O)OC2CCCCC2)cc1 | inconclusive: 14.1 µM [activator, partial curve] |
| COc1cc(/C=N/n2c(C)nnc2C)cc(OC)c1OC | inactive |
| COc1ccc(C2(C(=O)NCCc3ccccc3)CCCC2)cc1 | inconclusive: 11.2 µM [activator, single point] |
| O=C(OCc1c(Cl)cccc1Cl)c1cccnc1Cl | inactive |
| CC(=O)NCCn1c(SCc2ccc(C)cc2C)nc2ccccc2c1=O | inconclusive: 12.6 µM [activator, partial curve] |
| Cc1sc(NC(=O)/C=C/c2ccc3c(c2)OCO3)nc1-c1ccccc1 | inconclusive: 28.2 µM [activator, partial curve] |
| COc1ccc(C2=CC(=O)C[C@H](c3ccc(F)cc3)C2)cc1OC | inconclusive: 35.5 µM [activator, single point] |
| Cc1cc(C)c(S(=O)(=O)N2CCN(C(=O)c3cc4ccccc4o3)CC2)c(C)c1 | inconclusive: 35.5 µM [activator, single point] |
| COc1ccc2sc(-c3ccccc3OC)c(C#CC(C)(C)O)c2c1 | inconclusive: 12.6 µM [activator, single point] |
| COC(=O)/C=C\C(=O)Nc1cccc([N+](=O)[O-])c1 | inconclusive: 31.6 µM [activator, single point] |
| COc1ccc(N2CCN(C(c3nnnn3CCc3ccccc3)C(C)C)CC2)cc1 (stereo not given) | inconclusive: 8.91 µM [activator, partial curve] |
| COc1ccc(OC)c(-c2nnc(-c3ccc(C)o3)o2)c1 | inactive |
| Cc1cc(C)n(-c2nc3c(c(=O)[nH]c(=O)n3C)n2Cc2cccc(Br)c2)n1 | inconclusive: 15.8 µM [activator, partial curve] |
| Nc1c(C(=O)Nc2cccc(F)c2)nnn1-c1cccc(C(F)(F)F)c1 | inconclusive: 10 µM [activator, single point] |
| Cc1nnc(NC(=O)CCC(=O)NC2CCCCCCC2)s1 | inactive |
| CSc1nccc(NC(=O)c2cccc(Br)c2)n1 | inconclusive: 35.5 µM [activator, single point] |
| COC(=O)c1c(NC(NC(=O)c2ccccc2)(C(F)(F)F)C(F)(F)F)sc2c1CCN(C)C2 | inconclusive: 31.6 µM [activator, single point] |

| SMILES | Potency |
| --- | --- |
| O=C(CSc1nnnn1-c1ccc(O)cc1)N1N=C(c2ccc3ccccc3c2)CC1c1ccccc1 (stereo not given) | inconclusive: 3.55 µM [activator, full curve] |
| CCC(C)(C)n1nnnc1C(c1ccc(OC)c(OC)c1)N1CCN(C(=O)c2ccco2)CC1 (stereo not given) | inactive |
| O=C(Cc1nc2ccccc2[nH]1)c1cccc([N+](=O)[O-])c1 | inactive |
| Cc1nc(Nc2ccc(Cl)c(Cl)c2)sc1C(=O)Nc1ccccc1 | inconclusive: 5.62 µM [activator, full curve] |
| CCCc1c(C)nc2ccccc2c1SCCC#N | inconclusive: 22.4 µM [activator, partial curve] |
| CCOC(=O)Nc1nc(-c2ccccc2)c(C(=O)c2ccc(Cl)cc2)s1 | inconclusive: 11.2 µM [activator, partial curve] |
| COC(=O)CC1COc2ccccc2N1S(=O)(=O)c1ccc(OC)cc1 (stereo not given) | inactive |
| Cn1c(C(=O)N2CCCc3ccccc32)cc2sccc21 | inconclusive: 11.2 µM [activator, partial curve] |
| CCOC(=O)c1c(NC(=O)COc2ccccc2F)sc2c1CC(C)(C)NC2(C)C | inconclusive: 12.6 µM [activator, single point] |
| CSc1ccc(OC2CCCCC2NS(=O)(=O)c2ccccc2)cc1 (stereo not given) | inconclusive: 17.8 µM [activator, partial curve] |
| CC(C)C(c1nnnn1C(C)(C)C)N1CCC(Cc2ccccc2)CC1 (stereo not given) | inconclusive: 22.4 µM [activator, partial curve] |
| CNc1oc(/C=C/c2ccccc2)nc1C#N | inactive |
| Cn1cc(Br)c(C(=O)NC2C3CC4CC(C3)CC2C4)n1 (stereo not given) | inconclusive: 14.1 µM [activator, single point] |
| Cc1cc(C)nc(NS(=O)(=O)c2ccc(NC(=O)c3cc4c(=O)n5cccc(C)c5nc4n3C)cc2)n1 | inactive |
| O=C1/C(=C/c2ccc([N+](=O)[O-])cc2)C=C(c2ccccc2)N1c1ccc(O)cc1 | inactive |
| O=C(C1CCCN(S(=O)(=O)c2cccc3nonc23)C1)N1CCN(c2ccccc2Cl)CC1 (stereo not given) | inconclusive: 17.8 µM [activator, single point] |
| CCOC(=O)C1=C(O)/C(=C/c2ccc(-c3ccccc3C(=O)O)o2)SC1=Nc1ccc(C)cc1 | inactive |
| COC(=O)c1ccccc1NC(=O)CCCN1C(=O)C(c2ccccc2)Oc2cccnc21 (stereo not given) | inconclusive: 31.6 µM [activator, single point] |
| CCOC(=O)c1ccc(NC(=S)N2CCSC2c2ccc(Br)cc2)cc1 (stereo not given) | active: 22.4 µM |
| Cc1ccc(C2(C)NC(=O)N(CC(=O)Nc3ccccc3N3CCCC3)C2=O)cc1 (stereo not given) | inactive |
| COc1ccc(-c2cc(C(=O)N/N=C(\C)c3ccco3)c3ccccc3n2)c(OC)c1 | inactive |
| COc1cccc(N2CCN(C(=O)C3CCN(S(=O)(=O)c4ccc5c(c4)CC(C)N5C(C)=O)CC3)CC2)c1 (stereo not given) | inactive |
| Cc1ccc(NC2=C(NC(=O)c3ccccc3)C(=O)c3ccccc3C2=O)cc1Cl | inconclusive: 20 µM [activator, single point] |
| CC(C)Cc1csc(NC(=O)c2ccccc2Cl)c1C(=O)O | inconclusive: 7.94 µM [activator, partial curve] |

| SMILES | Potency |
| --- | --- |
| O=C(Nc1cccc(NC(=O)c2ccc(Cl)cc2Cl)c1)c1cccnc1 | inactive |
| COc1ccc(-c2cn3ccccc3n2)cc1[N+](=O)[O-] | inactive |
| COC(=O)C(C)Nc1cccc(Br)c1 (stereo not given) | inactive |
| Cc1ccc(S(=O)(=O)N(C)c2ccc(C(=O)Nc3cccc(C)n3)cc2)cc1 | inactive |
| Cc1ccc2c(c1)nnn2C1CCN(C(=O)C23CC4CC(CC(C4)C2)C3)CC1 | inconclusive: 25.1 µM [activator, single point] |
| CCOC(=O)c1cc2c(ccn2-c2ccc(F)cc2)n1CC(=O)NC(C)(C)C | inconclusive: 12.6 µM [activator, partial curve] |
| C/C(=N\NC(=O)c1ccccc1OCCOc1ccccc1)c1ccccc1F | inconclusive: 10 µM [activator, partial curve] |
| N=C1/C(=C\c2ccc(OC(=O)c3ccc(F)cc3)cc2)C(=O)N=C2SC(N3CCCC3)=NN12 | inactive |
| CCOc1ccc(C(=O)CCN2CCCCC2)cc1 | inconclusive: 35.5 µM [activator, single point] |
| O=C(c1ccco1)N1CCN(C(=O)c2ccccc2OC(=O)C23CC4CC(CC(C4)C2)C3)CC1 | inconclusive: 17.8 µM [activator, partial curve] |
| Cc1ccc(CNc2ccc([N+](=O)[O-])cc2C(N)=O)cc1 | inconclusive: 8.91 µM [activator, partial curve] |
| O=C(NCc1ccccc1)c1onc(CSc2ccc(Cl)cc2)c1C(=O)NCC1CC1 | inconclusive: 12.6 µM [activator, single point] |
| COc1ccc(C(=O)NNC(=O)CSc2nnnn2-c2cc(OC)cc(OC)c2)cc1 | inactive |
| CCC(C)(C)n1nnnc1C(c1ccncc1)N1CCC(Cc2ccccc2)CC1 (stereo not given) | inconclusive: 14.1 µM [activator, partial curve] |
| Cc1cccc(C)c1NC(=O)CN(C)C(=O)c1ccccc1C(=O)N(C)Cc1ccccc1 | inconclusive: 3.16 µM [activator, single point] |
| CC(=O)c1cc(C#N)c(SCCC(C)C)nc1C | inconclusive: 22.4 µM [activator, single point] |
| COc1cc(-c2c(-c3ccsc3)sc3ccccc23)cc(OC)c1OC | inconclusive: 15.8 µM [activator, single point] |
| COc1cc(C(F)(F)F)nc(-c2ccccn2)n1 | inconclusive: 17.8 µM [activator, partial curve] |
| OC(Cn1cncn1)(c1ccc(F)cc1)c1ccc(Cl)cc1 (stereo not given) | active: 7.08 µM |
| Cc1cc(C)nc(N(C#N)CCOc2ccccc2)n1 | inactive |
| Clc1ccc(-c2csc3ncnc(N4CCc5ccccc5C4)c23)cc1 | inconclusive: 22.4 µM [activator, single point] |
| OCCCNC(=S)Nc1ccc(Oc2ccccc2)cc1 | inactive |

Some of the entries above, reformatted.
SMILES,Potency
COc1ccc(-c2cn3ccccc3n2)cc1[N+](=O)[O-],inactive
Cc1ccc2c(c1)nnn2C1CCN(C(=O)C23CC4CC(CC(C4)C2)C3)CC1,"inconclusive: 25.1 µM [activator, single point]"
C/C(=N\NC(=O)c1ccccc1OCCOc1ccccc1)c1ccccc1F,"inconclusive: 10 µM [activator, partial curve]"
COc1cc(C(F)(F)F)nc(-c2ccccn2)n1,"inconclusive: 17.8 µM [activator, partial curve]"
